Measurements: patent US9708251B2, “Unsaturated fatty alcohol alkoxylates from natural oil metathesis” (Stepan Company, priority 2012, dated 2017)

Experiment: Fabric cleaning: primary nonionic surfactant for bargain laundry detergent
Conditions: versus Bio-Soft N25-7; wash 90° F.

| Compound | ΔSRI, beef tallow (BT) | ΔSRI, blood/ink/milk on cotton (EMPA 116) | ΔSRI, blueberry on cotton (BC) | ΔSRI, clay on cotton (CC) | ΔSRI, cocoa on cotton (EMPA 112) | ΔSRI, coffee on cotton (COFC) | ΔSRI, dust sebum on cotton (DSC) | ΔSRI, grass on cotton (GC) | ΔSRI, make-up on cotton (EMPA 143) | ΔSRI, red wine on cotton (RWC) | ΔSRI, sebum tefo (ST) |
| --- | --- | --- | --- | --- | --- | --- | --- | --- | --- | --- | --- |
| CCC=CCCCCCCCCOCCOCCOCCOCCOCCOCCOCCOCCOCCO (mixture of isomers) [A12-21] | 4.5 | −0.4 | 0.0 | 0.3 | 1.0 | 0.2 | 0.1 | −1.2 | 0.3 | 0.2 | 0.5 |
| CCC=CCCCCCCCCOCCOCCOCCOCCOCCOCCOCCO (mixture of isomers) [A12-13] | 2.6 | −0.9 | −0.8 | 0.3 | −0.3 | 0.2 | −0.3 | −1.3 | −0.1 | 0.6 |  |
| CCC=CCCCCCCCCOCCOCCOCCOCCOCCO (mixture of isomers) [A12-10] | 2.9 | −0.8 | −0.1 | 0.2 | 1.8 | −0.4 | −1.0 | −1.7 | 0.4 | −0.5 | −0.6 |
